These results are taken from PMC7504130.

Sequences of proteins named here, by UniProt entry; tags and fusion partners are left off. A change or cut given only in a name is not applied to a line headed by its entry.
UniProt P09874, whole entry: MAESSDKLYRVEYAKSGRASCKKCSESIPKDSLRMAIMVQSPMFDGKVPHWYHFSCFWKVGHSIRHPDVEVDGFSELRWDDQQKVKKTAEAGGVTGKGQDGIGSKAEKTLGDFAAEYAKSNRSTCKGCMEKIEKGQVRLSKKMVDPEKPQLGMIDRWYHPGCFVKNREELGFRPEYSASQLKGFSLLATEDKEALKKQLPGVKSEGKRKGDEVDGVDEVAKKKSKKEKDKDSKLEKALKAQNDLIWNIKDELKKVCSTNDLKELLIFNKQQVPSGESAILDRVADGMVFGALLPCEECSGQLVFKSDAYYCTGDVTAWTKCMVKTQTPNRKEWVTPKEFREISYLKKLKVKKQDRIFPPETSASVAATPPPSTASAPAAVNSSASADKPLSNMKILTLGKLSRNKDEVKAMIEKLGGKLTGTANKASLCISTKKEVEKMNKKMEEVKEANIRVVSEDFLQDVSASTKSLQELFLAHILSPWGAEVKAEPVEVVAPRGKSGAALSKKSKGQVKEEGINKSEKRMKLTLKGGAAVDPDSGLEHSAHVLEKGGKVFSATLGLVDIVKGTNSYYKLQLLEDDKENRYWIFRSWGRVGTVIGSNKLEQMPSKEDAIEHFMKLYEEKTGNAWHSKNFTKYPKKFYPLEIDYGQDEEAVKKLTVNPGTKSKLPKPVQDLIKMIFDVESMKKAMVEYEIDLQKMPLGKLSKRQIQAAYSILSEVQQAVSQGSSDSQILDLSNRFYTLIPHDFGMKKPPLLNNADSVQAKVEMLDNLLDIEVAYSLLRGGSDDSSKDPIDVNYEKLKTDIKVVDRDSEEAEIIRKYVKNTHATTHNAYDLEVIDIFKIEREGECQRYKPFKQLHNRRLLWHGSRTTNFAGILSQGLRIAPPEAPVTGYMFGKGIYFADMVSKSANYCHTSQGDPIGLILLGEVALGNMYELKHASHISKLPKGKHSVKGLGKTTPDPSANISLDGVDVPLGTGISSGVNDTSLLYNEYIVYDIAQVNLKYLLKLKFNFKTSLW
UniProt P09651: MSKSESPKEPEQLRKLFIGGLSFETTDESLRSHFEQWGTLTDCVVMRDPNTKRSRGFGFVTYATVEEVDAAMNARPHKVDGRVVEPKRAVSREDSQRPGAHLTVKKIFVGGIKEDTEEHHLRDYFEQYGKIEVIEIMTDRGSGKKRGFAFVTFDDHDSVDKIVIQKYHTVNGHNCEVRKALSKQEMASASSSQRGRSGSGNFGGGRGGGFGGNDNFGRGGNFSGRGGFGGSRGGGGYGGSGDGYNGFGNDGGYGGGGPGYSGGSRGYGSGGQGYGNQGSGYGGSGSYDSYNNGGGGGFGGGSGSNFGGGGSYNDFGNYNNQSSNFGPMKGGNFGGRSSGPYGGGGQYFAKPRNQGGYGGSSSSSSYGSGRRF

For data set [1], the target named is PARP-1 (Panc-1 nuclear extract) (UniProt P09874). In words: pull-down. To be noted: pull-down: 20 mM Tris-HCl pH 7.4, 150 mM KCl, 8% glycerol, 1 mM DTT, 0.1 mM ZnAc, 2.5 ng/uL poly[dI-dC], RT, 80 nM DNA, protein in an extract.
Data set [2] addresses T1, MAZ (Panc-1 nuclear extract) (UniProt P56270).
T1 sequence (looked up, limits assumed): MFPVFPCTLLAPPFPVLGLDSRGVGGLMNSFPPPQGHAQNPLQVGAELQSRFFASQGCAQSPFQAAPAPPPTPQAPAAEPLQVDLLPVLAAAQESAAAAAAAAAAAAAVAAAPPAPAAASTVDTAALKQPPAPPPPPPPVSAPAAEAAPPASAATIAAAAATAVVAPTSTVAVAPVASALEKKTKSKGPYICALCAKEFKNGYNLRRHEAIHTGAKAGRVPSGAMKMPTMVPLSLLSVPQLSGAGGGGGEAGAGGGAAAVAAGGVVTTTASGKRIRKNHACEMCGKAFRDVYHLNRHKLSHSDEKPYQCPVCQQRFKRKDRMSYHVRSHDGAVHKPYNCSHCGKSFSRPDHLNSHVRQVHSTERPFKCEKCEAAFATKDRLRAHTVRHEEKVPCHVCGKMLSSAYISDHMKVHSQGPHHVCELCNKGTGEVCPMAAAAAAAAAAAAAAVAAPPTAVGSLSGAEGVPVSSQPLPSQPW
As to the kind of experiment: pull-down. To be noted: pull-down: 20 mM Tris-HCl pH 7.4, 150 mM KCl, 8% glycerol, 1 mM DTT, 0.1 mM ZnAc, 2.5 ng/uL poly[dI-dC], RT, 80 nM DNA, protein in an extract.

For data set [3], the target named is hnRNP A1 (Panc-1 nuclear extract) (UniProt P09651). In words: pull-down. To be noted: pull-down: 20 mM Tris-HCl pH 7.4, 150 mM KCl, 8% glycerol, 1 mM DTT, 0.1 mM ZnAc, 2.5 ng/uL poly[dI-dC], RT, 80 nM DNA, protein in an extract.
The test system of data set [4] is PARP-1. In words: EMSA. Conditions: EMSA: 20 mM Tris-HCl pH 8, 30 mM KCl, 1.5 mM MgCl2, 1 mM DTT, 8% glycerol, 50 uM ZnAc, 2.5 ng/mL poly[dI-dC], 25 C, 50 nM DNA, commercial protein, label: 5'-Cy5.5. In general terms: A gel shift assay detects complexes by their altered migration in electrophoresis.
For data set [5], the system named is PARP-1. As to the kind of experiment: Trp fluorescence quenching. To be noted: commercial protein, folded or branched DNA.
A further data set has as its target GST-MAZ (UniProt P56270). As to the kind of experiment: EMSA. To be noted: EMSA: 20 mM Tris-HCl pH 8, 30 mM KCl, 1.5 mM MgCl2, 1 mM DTT, 8% glycerol, 50 uM ZnAc, 2.5 ng/mL poly[dI-dC], 25 C, 50 nM DNA; recombinant protein; protein details: GST; label: 5'-Cy5.5; folded or branched DNA.
The next data set has as its system GST-hnRNP A1. In words: EMSA. Conditions: EMSA: 20 mM Tris-HCl pH 8, 30 mM KCl, 1.5 mM MgCl2, 1 mM DTT, 8% glycerol, 50 uM ZnAc, 2.5 ng/mL poly[dI-dC], 25 C, 50 nM DNA; recombinant protein; protein details: GST; label: 5'-Cy5.5; folded or branched DNA.
[6] abbreviates: two 8-oxoG in the 12-nt loop (positions not in text), label: biotin 5', folded or branched DNA.
[7] abbreviates: up to 34.4-fold PARP-1, single-stranded DNA.
Where [8] appears, read: label: biotin 5', folded or branched DNA.
[9] abbreviates: very weak, label: biotin 5', folded or branched DNA.
Setting [10] is: duplex, label: biotin 5' on strand 1.
Setting [11] is: duplex, two 8-oxoG (positions not in text), label: biotin 5' on strand 1.
[12] abbreviates: ~30% quenching, 2 PARP-1 per G4.
Where [13] appears, read: duplex, one 8-oxoG in a G-run (position not in text), label: biotin 5' on strand 1.
The mark [14] stands for this setting: one 8-oxoG in a G-run (position not in text), label: biotin 5', folded or branched DNA.

The exact form of at least one protein or probe is not confirmed. For some of these results: Negatives hold for the conditions tested. For some of these results: Weaker means in comparison with the reference protein, sequence or condition of that experiment. For some of these results: At least one result comes from cells or an extract, where the contact may be indirect. For some of these results: Where a protein sequence is shown, tags need not be part of it. For some of these results: At least one verdict was read from the data and is not stated in words by the source.

As to “TTTTCGGGCCGGCGGGGGAGGAGCGGGGGCCGGGC [b-mid2OX G4]”, in data set [1] (two 8-oxoG (positions not in text), label: biotin 5', folded or branched DNA), the binding result is listed as “binds”. For the sequence “TTTTAGGGCGGTGTGGGAAGAGGGAAGAGGGGGAGG [b-96 G4]”, the binding result in data set [2] (setting [6]), in data set [1] (setting [6]) and in data set [3] (setting [6]) was “binds” each time. For the sequence CATCAGAAGGCTAGCAATCA [ODN1], the binding result with PARP-1 [4] (setting [7]) is on record as “no binding”. Turning to “TTTTCGGGGAGAAGGAGGGGGCCGGGCCGGGCCGGCGGGGGAGGAGCGGGGGCCGGGC [b-mid G4]”, the binding result in data set [2] (setting [8]), in data set [1] (setting [8]) and in data set [3] (setting [8]) was “no binding” throughout. For the sequence “TTTTCGGGGAGAAGGAGGGGGCCGGGCCGGGC [b-mid1 G4]”, the results for the binding result in data set [2] (setting [9]), in data set [1] (setting [8]) and in data set [3] (setting [9]) were “binds more weakly”, “binds” and “binds more weakly”, respectively. “TTTTAGGGCGGTGTGGGAAGAGGGAAGAGGGGGAGG / CCTCCCCCTCTTCCCTCTTCCCACACCGCCCT [b-32R duplex]”: the binding result in data set [2] (setting [10]) and in data set [1] (setting [10]) was “binds” each time. On to “TTTTCGGGGAGAAGGAGGGGGCCGGGCCGGGCCGGCGGGGGAGGAGCGGGGGCCGGGC [b-midOX G4]”, for which the binding result in data set [2] (some binding, two 8-oxoG (positions not in text), label: biotin 5', folded or branched DNA) is reported as “binds more weakly”. On to “TTTTCGGGGAGAAGGAGGGGGCCGGGCCGGGC [b-mid1OX G4]”, for which, in data set [1] (one 8-oxoG (position not in text), label: biotin 5', folded or branched DNA), the binding result is on record as “binds”. Turning to “TTTTAGGGCGGTGTGGGAAGAGGGAAGAGGGGGAGG [b-32R G4]”, the binding result in data set [2] (setting [8]), in data set [1] (setting [8]) and in data set [3] (setting [8]) was “binds” in each case. For “TTTTAGGGCGGTGTGGGAAGAGGGAAGAGGGGGAGG / CCTCCCCCTCTTCCCTCTTCCCACACCGCCCT [b-96 duplex]”, the binding result in data set [2] (setting [11]) and in data set [1] (setting [11]) was “binds” each time. As to “AGGGCGGTGTGGGAAGAGGGAAGAGGGGGAGG [G4 32R unlabelled]”, in the data set on PARP-1 [5] (~50% quenching, 2 PARP-1 per G4, Na-cacodylate pH 7.4, 100 mM KCl, 50 uM ZnAc, 20 C), the binding result was “binds”. For “CGGGCCGGCGGGGGAGGAGCGGGGGCCGGGC [G4 mid2 unlabelled]”, the binding result in the data set on PARP-1 [5] (setting [12]) is recorded as “binds”. Turning to “CGGGGAGAAGGAGGGGGCCGGGCCGGGC [G4 mid1 unlabelled]”, in the data set on PARP-1 [5] (setting [12]), the binding result is “binds”. On to CCTAATGCTGCTAAACTCCC [ODN3], for which the binding result with PARP-1 [4] (setting [7]) is recorded as “no binding”. Take “CGGGCCGGCGGGGGAGGAGCGGGGGCCGGGC [Cy5.5-mid2 (G4 mid2)]”: the binding result with GST-MAZ and in the data set on GST-hnRNP A1 was “binds” each time. Turning to “CGGGGAGAAGGAGGGGGCCGGGCCGGGC [Cy5.5-mid1 (G4 mid1)]”, the binding result with GST-MAZ and with GST-hnRNP A1 was “binds” each time. With “TTTTCGGGCCGGCGGGGGAGGAGCGGGGGCCGGG [b-mid2 G4]”, the values for the binding result in data set [2] (setting [9]), in data set [1] (setting [8]) and in data set [3] (setting [9]) were “binds more weakly”, “binds” and “binds more weakly”, respectively. In the case of “TTTTAGGGCGGTGTGGGAAGAGGGAAGAGGGGGAGG / CCTCCCCCTCTTCCCTCTTCCCACACCGCCCT [b-92 duplex]”, the binding result in data set [2] (setting [13]) and in data set [1] (setting [13]) was “binds” throughout. For the sequence AATAGTAATTGCTTAGCCTG [ODN2], the binding result in the data set with PARP-1 [4] (setting [7]) is reported as “no binding”. For “TTTTAGGGCGGTGTGGGAAGAGGGAAGAGGGGGAGG [b-92 G4]”, the binding result in data set [2] (setting [14]), in data set [1] (setting [14]) and in data set [3] (setting [14]) was “binds” throughout. With “CGGGGAGAAGGAGGGGGCCGGGCCGGGCCGGCGGGGGAGGAGCGGGGGCCGGGC [Cy5.5-mid (G4 mid)]”, the binding result with GST-MAZ is recorded as “binds”; with PARP-1 [4] (little binding, not shown, folded or branched DNA) it was “binds more weakly”; in the data set with GST-hnRNP A1, “binds”.

For the sequence “TTTTCGGGGAGAAGGAGGGGGCCGGGCCGGGCCGGCGGGGGAGGAGCGGGGGCCGGGC / GCCCGGCCCCCGCTCCTCCCCCGCCGGCCCGGCCCGGCCCCCTCCTTCTCCCCG [b-mid duplex]”, the binding result in data set [2] (setting [10]) is “binds”; in data set [1] (setting [10]), “binds”; in data set [3] (setting [10]), “no binding”.
